Earlier results on one compound are cited in PMC11651071 (International Journal of Nanomedicine, 2024).

For the series the following is noted: cited from earlier work.

Regarding `COc1cc(/C=C/C(=O)CC(=O)/C=C/c2ccc(O)c(OC)c2)ccc1O` [CU, Curcumin], the Water solubility entry is given as “approximately 0.125 mg/L”.
